Laboratory results: PMC5486949 (SLAS discovery, 2017)

Tested on: ERRα
Assay: ERR luciferase reporter gene assay, antagonist mode
Format: cell-based
Details: Homo sapiens, read-out: ERRα (Antagonist) IC50

IC50: 11.9 µM
SMILES: Clc1ccccc1C(c1ccccc1)(c1ccccc1)n1ccnc1 [Clotrimazole]
